{"source": "patent US7767817B2", "about": "“Water soluble boronic acid fluorescent reporter compounds and methods of use thereof” (priority 2003, dated 2010)", "test": "Fluorescence intensity pH profile (apparent pKa)", "type": "physicochemical", "conditions": "for increase in fluorescence intensity: pH from 3 to 10", "text": "Since the fluorescence intensity increase upon binding with a sugar seems to be a general phenomenon, the fluorescence change mechanism of compound 5 at pH 7.4 was investigated. For this purpose, the fluorescence pH profiles of both compound 5 alone and compound 5 in the presence of fructose (0.5 M) were studied. The fluorescence intensity of 5 at 334 nm in the absence of sugars decreased upon changing the pH from 3 to 12 (FIG. 3). An apparent pKa of 7.0 was observed, which is assigned to the boronic acid moiety. […] It is well-known that the binding of a diol to boronic acid often lowers the pKa of the boron species) (Springsteen, G.; Wang, B. Tetrahedron 2002, 58, 5291-5300). Therefore, the pKa, which drops from 7.0 to 4.0, can also be reasonably assigned to boron. […] It seems that the fluorescence intensity change of compound 5 is also due to diol's perturbation as that of 8-quinolineboronic acid.\nTo examine the relationship between the fluorescence intensity changes and the boron ionization states, the pH profile of the fluorescence intensity in the absence and presence of fructose and glucose at a fixed concentration (50 mM) was also studied (FIG. 6). […] It is worth mentioning that the pKa of the protonated dimethyl amino group of 1 is […] the emission wavelength of 1 with the protonated dimethyl amino group at low pH is about 238 nm. Therefore, the fluorescence intensity of 1 at 445 nm was not affected by the protonated dimethyl amino group. The fluorescence intensity changes correspond to the boronic acid pKa (9.4) and therefore hybridization changes, which was responsible for the fluorescence intensity changes observed.\nSince the fluorescence intensity increase upon binding with a sugar seems to be a general phenomenon, next the conditions under which optimal fluorescence intensity changes are observed upon addition of a sugar was investigated. For this purpose, the fluorescence pH profiles of both compound 6 alone and in the presence of fructose (0.5 M) were studied. The fluorescence intensity of 6 in the absence of sugars increased by 17-fold upon changing the pH from 3 to 12 (FIG. 10). […] Furthermore, one would expect the pKa values of the other two ionizable groups, the carboxylic acid and the quinolinium groups, to be less than 7. Therefore, assigning the pKa at 7.9 to the boronic acid moiety is the most reasonable option. […] It is well-known that the binding of a diol to boronic acid often lowers the pKa of the boron species. […] Upon addition of fructose, the pKa of the boron drops to about 5.2, which ensures that most of the boron species are in the anionic tetrahedral state at physiological pH.\nSince the fluorescence intensity increase upon binding with a sugar seems to be a general phenomenon, the use of 5-QBA functions as a fluorescent probe for diols was investigated. The fluorescence pH profiles of both 5-QBA alone and 5-QBA in the presence of D-fructose (0.5 M) were investigated. […] In order to assign each pKa, the ^11B NMR spectra of 5-QBA and its ester in a mixed deuterated methanol-water (1:1) solvent at different pH were obtained. Methanol was used so that the concentration of 5-QBA can be increased to 57 mM so as to allow for a meaningful NMR determination within a reasonable period of time.\nTo understand the structural features associated with the fluorescence intensity changes, we studied the pH profiles of the fluorescence intensity in the absence (FIG. 18) and presence of fructose and glucose at a fixed concentration (50 mM). […] The fluorescence intensity at 513 nm increased very quickly when pH increased from 1.78 to 7.04 (thin lines in FIG. 18), and then decreased in the pH range of 7.04-10.54 (thick lines in FIG. 18).", "note": "A unit is not stated for every read-out.", "data": [{"molecule": "CN(C)c1ccc(B(O)O)c2ccccc12", "note": "[Compound 1, 4-(dimethylamino)-naphthalene boronic acid]", "values": [{"measurement": "increase in fluorescence intensity", "setting": "presence of fructose 50 mM", "result": "over 140 fold"}, {"measurement": "increase in fluorescence intensity", "setting": "presence of glucose 50 mM", "result": "over 140 fold"}, {"measurement": "emission intensity increase at 445 nm", "setting": "pH from 3 to 12, absence of any carbohydrate", "result": 168, "unit": "fold"}]}, {"molecule": "OB(O)c1cccc2ncccc12", "note": "[Compound 3]", "values": [{"measurement": "pH of the highest fluorescence intensity change", "setting": "with versus without 0.5 M D-fructose", "result": 5.8}]}, {"molecule": "O=C(O)c1cc(-c2ccc(B(O)O)cc2)nc2ccccc12", "note": "[Compound 6, 2-(4-phenylboronic acid)-quinoline-4-carboxylic acid]", "values": [{"measurement": "fluorescence intensity increase", "setting": "pH from 2 to 10, presence of fructose 0.5 M", "result": 35, "unit": "fold"}, {"measurement": "fluorescence intensity increase", "setting": "pH from 3 to 12, absence of sugars", "result": 17, "unit": "fold"}]}, {"molecule": "CN(C)c1cccc2c(B(O)O)cccc12", "note": "[Compound 7, 5-(Dimethylamino)-naphthalene-1-boronic acid]", "values": [{"measurement": "intensity decrease at 335 nm", "setting": "pH from 1.78 to 7.04", "result": "over 30 fold"}]}]}
